# Library screen at single concentrations

Sequences of proteins named here, by UniProt entry; tags and fusion partners are left off. Residues count along the entry.
UniProt Q4DA54, 1-478: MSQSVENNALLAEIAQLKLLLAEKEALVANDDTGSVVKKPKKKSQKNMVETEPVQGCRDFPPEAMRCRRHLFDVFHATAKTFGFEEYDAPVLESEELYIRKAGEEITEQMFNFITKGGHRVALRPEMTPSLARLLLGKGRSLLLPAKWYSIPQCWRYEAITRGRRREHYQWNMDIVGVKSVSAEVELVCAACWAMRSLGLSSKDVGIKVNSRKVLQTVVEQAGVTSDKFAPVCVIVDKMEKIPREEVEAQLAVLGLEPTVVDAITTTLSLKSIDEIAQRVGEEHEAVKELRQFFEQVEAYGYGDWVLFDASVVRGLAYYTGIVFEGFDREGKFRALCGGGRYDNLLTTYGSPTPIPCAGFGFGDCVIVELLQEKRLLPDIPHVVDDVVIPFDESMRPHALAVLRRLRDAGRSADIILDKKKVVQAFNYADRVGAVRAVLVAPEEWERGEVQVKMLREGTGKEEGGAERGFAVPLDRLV

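Histidine-tRNA ligase, Trypanosoma cruzi CL Brener (UniProt Q4DA54). Enzyme assay of histidyl-tRNA synthetase; the read-out is not stated. Concentration: 30 µM. Higher reads as stronger inhibition (inferred: compounds with an IC50 in retests scored well above the rest). About 69,000 compounds were tested under these conditions; 0.045% (about 31) showed 50% or more at least once.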

Values are the deposited “Percent Effect”, in %. The controls that fix the scale are not given in the record; negative values are as filed. The compounds are a random part of those screened.

SMILES: O=C1[C@H]2CC[C@H](CN(Cc3nnc(C4CC4)o3)C2)N1Cc1cscn1
Percent Effect: 8

SMILES: Cc1c(C(=O)N2CCC3(CCC(=O)N(CCN(C)C)C3)CC2)ccn1C
Percent Effect: -13.29

SMILES: CCN(c1ccc(C(=O)N2CCC(C)CC2)cc1)S(=O)(=O)CC
Percent Effect: 1.508

SMILES: Cc1cnn(CC2CCCN2C(=O)c2cc3ccccc3[nH]2)c1 (centres undefined)
Percent Effect: 4.151

SMILES: Cc1ccc(C)c(S(=O)(=O)CCN2CCCC2Cn2cccn2)c1 (centres undefined)
Percent Effect: 2.97

SMILES: Cc1ccccc1C(C(=O)N(C)Cc1cnn(C)c1)N(C)C (centres undefined)
Percent Effect: 6.383

SMILES: CCn1c(C)nc2cc(NC(=O)C3CN(C(C)=O)C3)ccc21
Percent Effect: 2.273

SMILES: CCc1noc(CN(C)Cc2cc(Br)ccc2OC)n1
Percent Effect: 2.41

SMILES: COC(=O)N1CCc2ccccc2C1C(=O)NCC(F)(F)F (centres undefined)
Percent Effect: 1.031

SMILES: COc1ccc(S(=O)(=O)C2CCN(C(=O)c3cc(C)cs3)CC2)cc1
Percent Effect: -1.587

SMILES: CN(C)Cc1ccc(N2CCN(CCOCC(F)(F)F)CC2)nc1
Percent Effect: 2.155

SMILES: CC1CCN(c2ncc(-c3ccccc3F)c(-c3nccn3C)n2)CC1
Percent Effect: 1.695

SMILES: N#Cc1cnc2ccccc2c1N1CCN(C(=O)C2CCC2)CC1
Percent Effect: 7.182

SMILES: O=C(C1SCCc2ccccc21)N1CCC(O)CC1 (centres undefined)
Percent Effect: 2.463

SMILES: CC(=O)N1CCN(c2nc(C(F)(F)F)nc3sc(C)c(C)c23)CC1
Percent Effect: 3.226

SMILES: CC(C(=O)N1CCCN(c2ccc(C#N)cc2)CC1)n1cccn1 (centres undefined)
Percent Effect: 0.578

SMILES: c1ccc(CNc2cc(C3CCCNC3)ccn2)nc1 (centres undefined)
Percent Effect: -1.916

SMILES: CC(C)Cc1noc(C2CCCCN2C(=O)CCc2cnn(C)c2)n1 (centres undefined)
Percent Effect: 3.509

SMILES: O=C(C1CCOC1)N1CCc2ncnc(C3CC3)c2CC1 (centres undefined)
Percent Effect: 7.463

SMILES: CN1C(=O)CC(C(=O)O)C12CCN(c1ccc3c(n1)CCCC3)CC2 (centres undefined)
Percent Effect: 4

SMILES: Cc1nc([C@H]2C[C@@H]3CCN(Cc4cnn(C)c4)C[C@H]3O2)sc1C
Percent Effect: 5.941

SMILES: CCN1CCOC(CNCc2ccc(OCc3ccccn3)cc2)C1 (centres undefined)
Percent Effect: 6.706

SMILES: CCc1cc(N2CCC(NC(=O)CCC3CCCO3)CC2)ncn1 (centres undefined)
Percent Effect: 3.571

SMILES: Cc1n[nH]c(C)c1CCC(=O)N1CCC(O)(CN2CCOCC2)C1 (centres undefined)
Percent Effect: 2.273

SMILES: O=C(CN1C(=O)CCC1=O)N1CCC(S(=O)(=O)Cc2ccco2)CC1
Percent Effect: 1.111

SMILES: Cc1nc(N(C)C)nc(-c2cccc(-c3ccn(CCCO)n3)c2)c1C
Percent Effect: 8.911

SMILES: O=C(O)c1ccccc1-n1cnc(CN2CCCCCC2)c1
Percent Effect: 3.101

SMILES: Cc1csc2cc(C(=O)NC3CCCC3)cnc12
Percent Effect: 9.091

SMILES: CCN1CCCC(C)(C(=O)NCCc2nnc(C)[nH]2)C1 (centres undefined)
Percent Effect: 0

SMILES: Cc1cn2c(n1)CCC(NC(=O)Cn1cncn1)C2 (centres undefined)
Percent Effect: 0.578

SMILES: O=C(O)C1CN(Cc2cccc(-c3ccccn3)c2)CCO1 (centres undefined)
Percent Effect: 7.921

SMILES: Cc1cccc(N(CCC(N)=O)C(=O)c2cnccn2)c1
Percent Effect: 0

SMILES: COc1ncnc(N(C)C)c1NC(=O)Cc1c[nH]c2ccc(F)cc12
Percent Effect: 3.704

SMILES: NS(=O)(=O)c1ccc(CNCC(=O)NCc2ccc(Cl)cc2Cl)cc1
Percent Effect: 0.5848

SMILES: Cc1ccc(C(=O)NCC2COCCO2)c(=O)[nH]1 (centres undefined)
Percent Effect: 0.5128

SMILES: CN1CCCC(CNC(=O)N2CCN(Cc3ccon3)CC2)C1 (centres undefined)
Percent Effect: 4.564

SMILES: CCN1C(=O)CCC12CCN(C(=O)c1ccco1)CC2
Percent Effect: 5.825

SMILES: Cc1nc(CNC(C(=O)N2CCOCC2)C(C)C)oc1C (centres undefined)
Percent Effect: 0

SMILES: COc1ncnc2c1CCN(c1cc(C(F)(F)F)ncn1)CC2
Percent Effect: 0.5405

SMILES: Cc1nsc(C(=O)NCCc2ccc(F)cc2)n1
Percent Effect: 2.646

SMILES: Cc1nc(NC2CCCC2)cc(C2CCN2C(=O)c2ccccc2)n1 (centres undefined)
Percent Effect: 0.5405

SMILES: O=C(COc1coc(CN2CCCCC2)cc1=O)Nc1ccc(Cl)cc1
Percent Effect: -1.639

SMILES: Cn1cc(CN2C[C@@H]3[C@@H](C2)OCC(=O)N3Cc2ccncc2)cn1
Percent Effect: 0.5464

SMILES: CC(Cn1ccnc1)NC(=O)N1CCN(Cc2ccsc2)CC1 (centres undefined)
Percent Effect: 4.734

SMILES: COc1ccc(S(=O)(=O)N2CCOC(Cn3ccnc3)C2)cc1 (centres undefined)
Percent Effect: 6.513

SMILES: CC(C)Cn1c2c(ccc1=O)CC(NC(=O)c1ccsc1)CC2 (centres undefined)
Percent Effect: 6.186

SMILES: O=C(CC1=CSC2=NCCCN12)N1CCCCC1c1cccc(F)c1 (centres undefined)
Percent Effect: -13.99

SMILES: C[C@@H]1CN(C(=O)c2ccc(C#N)nc2)CC[C@@]1(O)C1CCOCC1
Percent Effect: 1.667

SMILES: Cn1cc(CCC(=O)N2CCN(Cc3ccncc3)CC2)cn1
Percent Effect: 4.58

SMILES: Cc1cnc2n(c1=O)CC(C(=O)Nc1cccc3cccnc13)CS2 (centres undefined)
Percent Effect: 5.785

SMILES: Cc1csc(C2(NCC(O)COc3ccc(F)cc3)CCC2)n1 (centres undefined)
Percent Effect: 3.448

SMILES: Cc1cc(CN2CC[C@H]3OCC[C@@]3(C(=O)N3CCOCC3)C2)no1
Percent Effect: 6.667

SMILES: O=C([C@H]1CC[C@@H]2[C@@H](CCN2C2CCCC2)O1)N1CCOCC1
Percent Effect: 10.61

SMILES: Cc1ccc2c(c1)OC(C)CN2C(=O)c1c[nH]c(C)cc1=O (centres undefined)
Percent Effect: 7.071

SMILES: N#Cc1ccc(N2CCC(OCCc3ccccc3)CC2)nc1
Percent Effect: 3.96

SMILES: CC(C)n1cc(CN2CCCN(C(=O)c3nccnc3N)CC2)cn1
Percent Effect: 4.813

SMILES: c1ccc(-c2nc(CNCCn3cccn3)cs2)cc1
Percent Effect: 8.333

Measurements from “University of Dundee, Small-Polar-MMV Screening Library” (2021), ChEMBL document CHEMBL3988442.